Source: patent US20170267768A1
Substitutions are numbered along the chain they refer to. Results are given in words; binding and its absence hold for the method and conditions named. Some entries that bind do so weakly or less than the wild type.

Chains of the proteins cited; added tags and fusions are not shown. Residues count along the entry.
UniProt P29317, residues 25-534: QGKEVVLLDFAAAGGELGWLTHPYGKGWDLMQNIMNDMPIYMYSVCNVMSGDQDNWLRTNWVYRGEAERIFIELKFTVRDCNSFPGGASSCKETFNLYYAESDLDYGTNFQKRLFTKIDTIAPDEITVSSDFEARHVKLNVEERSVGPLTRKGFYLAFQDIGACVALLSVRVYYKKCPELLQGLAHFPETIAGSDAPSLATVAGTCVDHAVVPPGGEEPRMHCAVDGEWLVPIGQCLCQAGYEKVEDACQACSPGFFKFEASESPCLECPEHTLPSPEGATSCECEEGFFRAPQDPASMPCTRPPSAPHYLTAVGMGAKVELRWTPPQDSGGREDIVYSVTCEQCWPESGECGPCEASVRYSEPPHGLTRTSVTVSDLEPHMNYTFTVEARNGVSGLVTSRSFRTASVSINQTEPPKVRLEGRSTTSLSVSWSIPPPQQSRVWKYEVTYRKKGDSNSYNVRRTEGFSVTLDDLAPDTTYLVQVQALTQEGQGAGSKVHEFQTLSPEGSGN

B1: scFv-1 (scFv)
scFv: QVQLVQSGGGLVQPGGSLRLSCAASGFTFSSYAMHWVRQAPGKGLEWVSVISPAGNNTYYADSVKGRFTISRDNSKNTLYLQMNSLRAEDTAVYYCARASVGATGPFDIWGQGTLVTVSSASTGGGGSGGGGSGGGGSGGGGSSSELTQPPSVSVAPGQTVTITCQGDSLRSYYASWYQQKPGTAPKLLIYGENNRPSGVPDRFSGSSSGTSASLTITGAQAEDEADYYCNSRDSSGTHLTVFGGGTKLTVLG
B2: scFv-2 (scFv)
scFv: B1 scFv with N56R, T58K
B3: scFv-3 (scFv)
scFv: B1 scFv with S49T, A54D, N56H
B4: scFv-4 (scFv)
scFv: B1 scFv with S49T, A54H, N56R, T58K
B5: scFv-5 (scFv)
scFv: B1 scFv with P53R, A54R, N56D, T58K
B6: scFv-6 (scFv)
scFv: B1 scFv with P53N, A54N, N56H, T58K
B7: scFv-7 (scFv)
scFv: B1 scFv with N56P
B8: scFv-8 (scFv)
scFv: B1 scFv with S49T, A54S, N56H
B9: scFv-9 (scFv)
scFv: B1 scFv with S49T, A54N, N56H
B10: scFv-10 (scFv)
scFv: B1 scFv with V50A, A54P, N56H
B11: scFv-11 (scFv)
scFv: B1 scFv with S49A, P53H, A54H, N56S
B12: scFv-12 (scFv)
scFv: B1 scFv with S49A, V50G, P53H, A54P, N56D
B13: scFv-13 (scFv)
scFv: B1 scFv with S49T, A54T, N56A
B14: scFv-14 (scFv)
scFv: B1 scFv with S49T, N56P, T58K
B15: scFv-15 (scFv)
scFv: B1 scFv with A54H, N56S, T58K
B16: scFv-16 (scFv)
scFv: B1 scFv with P53N, A54N, N56H
B17: scFv-17 (scFv)
scFv: B1 scFv with S49T, A54P, N56S, T58K
B18: scFv-18 (scFv)
scFv: B1 scFv with N56T
B19: scFv-19 (scFv)
scFv: B1 scFv with A54P, N56H
B20: scFv-20 (scFv)
scFv: B1 scFv with S49T, P53H, A54D, N56T
B21: scFv-21 (scFv)
scFv: B1 scFv with S49T, P53R, A54H, T58K
B22: scFv-22 (scFv)
scFv: B1 scFv with S49T, A54G, N56P, T58K

Tests used:
[1] = target: Staphylococcus aureus Protein A (Staphylococcus aureus) (UniProt P38507); test: yeast display FACS; 10 ug/mL fluorescently labeled Protein A
EphA2 with an His6 tag = EphA2 with an His6 tag (UniProt P29317); test: yeast display FACS; 200 nM EphA2-His6, anti-His6 detection

Row | Binder | binding [1] | binding (EphA2 with an His6 tag)
1 | B1 | binds | binds
2 | B2 | binds | binds
3 | B3 | binds | binds
4 | B4 | binds | binds
5 | B5 | binds | binds
6 | B6 | binds | binds
7 | B7 | binds | binds
8 | B8 | binds | binds
9 | B9 | binds | binds
10 | B10 | binds | binds
11 | B11 | binds | binds
12 | B12 | binds | –
13 | B13 | binds | binds
14 | B14 | binds | binds
15 | B15 | binds | binds
16 | B16 | binds | binds
17 | B17 | binds | binds
18 | B18 | binds | binds
19 | B19 | binds | binds
20 | B20 | binds | binds
21 | B21 | binds | binds
22 | B22 | binds | binds
